# Test results published in PubChem BioAssay AID2294 (Broad Institute, 2010).
# This is one part of the list. Results with a measured potency or affinity are listed apart. The source made no clear call on entries shown without one.
# Experiment: Chagas parasite intracellular growth inhibition, cell-based GalScreen HTS, first-pass stage (AID 2294)
# Settings: T. cruzi beta-gal in NIH3T3, luminescence, 90 h; at 1 µM (top of the series)
compound,measurement,value
Cc1cc2cc(CN3C(=O)c4ccccc4C3=O)ccc2n1C,"activity change, negative = inhibition",47%
